Measurements taken from publication PMC10079970.
Substitutions are numbered along the chain they refer to. Results are given in words; binding and its absence hold for the method and conditions named. In cells and extracts the contact can be indirect. Some entries that bind do so weakly or less than the wild type. Tags and fused reporters may be left off the sequences shown.

Sequences of proteins named here, by UniProt entry; tags and fusion partners are left off. Residues count along the entry.
UniProt P11142: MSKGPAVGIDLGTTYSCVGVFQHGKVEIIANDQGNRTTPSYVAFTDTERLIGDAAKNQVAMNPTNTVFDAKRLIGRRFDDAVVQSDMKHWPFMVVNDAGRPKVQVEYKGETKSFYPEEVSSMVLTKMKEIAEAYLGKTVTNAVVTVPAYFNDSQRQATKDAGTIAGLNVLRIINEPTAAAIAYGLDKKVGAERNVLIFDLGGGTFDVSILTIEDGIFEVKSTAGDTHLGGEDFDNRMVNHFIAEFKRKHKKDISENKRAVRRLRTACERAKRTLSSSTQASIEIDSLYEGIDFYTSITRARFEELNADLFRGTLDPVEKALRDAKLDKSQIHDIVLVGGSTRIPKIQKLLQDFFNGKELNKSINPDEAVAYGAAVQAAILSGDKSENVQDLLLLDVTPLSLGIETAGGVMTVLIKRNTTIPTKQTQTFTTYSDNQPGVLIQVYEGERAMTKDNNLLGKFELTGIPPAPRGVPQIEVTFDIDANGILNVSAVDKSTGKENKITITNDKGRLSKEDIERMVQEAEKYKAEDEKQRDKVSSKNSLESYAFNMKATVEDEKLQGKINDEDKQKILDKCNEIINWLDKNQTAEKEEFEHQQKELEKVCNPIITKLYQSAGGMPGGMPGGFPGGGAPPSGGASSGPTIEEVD
UniProt P10809, residues 27-573: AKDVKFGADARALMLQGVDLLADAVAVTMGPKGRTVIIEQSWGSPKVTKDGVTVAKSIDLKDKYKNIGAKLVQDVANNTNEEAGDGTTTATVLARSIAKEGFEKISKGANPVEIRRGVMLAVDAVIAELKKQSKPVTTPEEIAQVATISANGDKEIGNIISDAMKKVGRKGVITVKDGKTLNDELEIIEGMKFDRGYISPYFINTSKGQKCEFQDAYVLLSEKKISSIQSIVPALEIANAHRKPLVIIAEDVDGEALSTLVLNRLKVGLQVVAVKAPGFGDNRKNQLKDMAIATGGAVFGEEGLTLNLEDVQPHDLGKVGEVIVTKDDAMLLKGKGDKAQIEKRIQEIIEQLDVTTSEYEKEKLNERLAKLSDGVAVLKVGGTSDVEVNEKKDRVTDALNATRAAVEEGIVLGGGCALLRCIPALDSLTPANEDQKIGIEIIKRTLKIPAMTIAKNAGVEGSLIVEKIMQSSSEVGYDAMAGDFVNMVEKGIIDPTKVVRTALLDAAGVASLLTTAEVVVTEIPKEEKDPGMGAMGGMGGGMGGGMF
UniProt O95299, residues 36-355: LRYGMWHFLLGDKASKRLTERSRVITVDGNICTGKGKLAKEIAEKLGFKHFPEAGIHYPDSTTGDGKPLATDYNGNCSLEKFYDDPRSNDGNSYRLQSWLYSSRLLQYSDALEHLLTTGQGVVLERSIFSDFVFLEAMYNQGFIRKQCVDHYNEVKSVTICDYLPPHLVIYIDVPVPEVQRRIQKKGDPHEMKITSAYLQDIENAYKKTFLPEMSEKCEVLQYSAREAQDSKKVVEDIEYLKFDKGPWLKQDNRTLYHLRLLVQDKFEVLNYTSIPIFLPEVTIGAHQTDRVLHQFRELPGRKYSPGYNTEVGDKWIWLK

Columns and labels:
[1] = biological target: T1, V5-FLAG-tagged wild-type β-glucocerebrosidase (GCase) (human) (UniProt P04062); test: co-IP; anti-FLAG M2 agarose IP of V5-FLAG-GCase from T-Rex HEK lysate (1x TBS pH 7.4, 0.5% NP40), 2 h at 4 °C, FLAG peptide elution, western blot; also after shRNA knock-down of HSC70 or TIM23 (L444P-GCase with LONP1 significantly decreased)
T1 sequence: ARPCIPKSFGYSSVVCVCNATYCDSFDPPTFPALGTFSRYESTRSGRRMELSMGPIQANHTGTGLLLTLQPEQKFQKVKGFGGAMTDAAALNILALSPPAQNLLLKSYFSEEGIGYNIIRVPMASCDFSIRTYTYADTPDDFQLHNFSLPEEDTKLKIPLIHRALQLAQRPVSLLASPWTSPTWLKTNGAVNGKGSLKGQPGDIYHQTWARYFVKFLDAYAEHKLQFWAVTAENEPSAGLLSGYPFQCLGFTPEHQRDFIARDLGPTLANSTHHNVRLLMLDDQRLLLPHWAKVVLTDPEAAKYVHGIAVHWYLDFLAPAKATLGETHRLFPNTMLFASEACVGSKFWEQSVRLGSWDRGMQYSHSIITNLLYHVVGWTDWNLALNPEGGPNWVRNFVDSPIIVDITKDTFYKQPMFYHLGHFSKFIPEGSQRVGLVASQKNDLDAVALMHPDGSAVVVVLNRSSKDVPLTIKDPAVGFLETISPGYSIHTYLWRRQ

[2] = biological target: T2, V5-FLAG-tagged E326K β-glucocerebrosidase (GCase) (human) (UniProt P04062); test: as above
T2 sequence: T1 sequence with E326K

[3] = biological target: T3, V5-FLAG-tagged L444P β-glucocerebrosidase (GCase) (human) (UniProt P04062); test: as above
T3 sequence: T1 sequence with L444P

[4] = biological target: T4, endogenous β-glucocerebrosidase (GCase) of gene-corrected isogenic control NPCs (human (endogenous in iPSC-derived NPCs)) (UniProt P04062); test: co-IP; endogenous GCase precipitated with GBA MaxPab polyclonal rabbit antibody cross-linked (DSS) to protein A/G magnetic beads, 7 mg NPC lysate overnight, elution at pH 2.0, western blot; normal rabbit IgG as control
T4 sequence: T1 sequence

[5] = biological target: T5, endogenous L444P β-glucocerebrosidase (GCase) of L444P/L444P NPCs (human (endogenous in iPSC-derived NPCs)) (UniProt P04062); test: as above
T5 sequence: T1 sequence with L444P

Row | Substance | binding [1] | binding [2] | binding [3] | binding [4] | binding [5]
1 | ATP5B (from UniProt P06576 48-529) | binds |  |  |  | 
2 | HSC70 (from UniProt P11142 1-646) | binds | binds | binds |  | 
3 | HSP60 (from UniProt P10809 27-573) | binds | binds | binds |  | 

Second part, the substance after the results:

Row | binding [1] | binding [2] | binding [3] | binding [4] | binding [5] | Substance
4 |  |  |  | binds | binds | HSP60 (endogenous in NPCs) (from UniProt P10809 27-573)
5 | binds | binds | binds |  |  | NDUFA10 (from UniProt O95299 36-355)
